{"source": "patent US12065471B2", "about": "“B*44 restricted peptides for use in immunotherapy against cancers and related methods” (Immatics Biotechnologies GmbH, priority 2018, dated 2024)", "key": {"[1]": {"system": "source genes (mRNA) in tumor and normal tissues", "assay": "Expression profiling of genes encoding the peptides (RNAseq)", "design": "species or system human", "conditions": "for Gene Expression in tumor samples: highly over-expressed (++): tumor types in which the peptide's source gene is highly over-expressed compared to a panel of normal tissues (RNAseq); for Gene Expression in tumor samples: over-expressed (+): tumor types in which the peptide's source gene is over-expressed compared to a panel of normal tissues (RNAseq)"}, "[2]": {"system": "HLA molecules of primary tumor and normal tissue samples", "assay": "Identification and quantitation of tumor associated peptides presented on the cell surface (HLA immunoprecipitation, label-free LC-MS)", "design": "species or system human", "conditions": "cancer entities on which the peptide was found presented (HLA immunoprecipitation, LC-MS); abbreviations in table footnotes"}}, "note": "For some of these results: Expression values are those of the mRNA of the gene that encodes the peptide; a gene is named only where it was looked up."}
{"substance": "237: peptide found in ROS1 (gene looked up) (QEIGQKTSV; listed as Homo sapiens) [compound 237]", "values": [{"measurement": "Gene Expression in tumor samples: highly over-expressed (++)", "setting": "[1]", "value": "NSCLCadeno"}, {"measurement": "Gene Expression in tumor samples: over-expressed (+)", "setting": "[1]", "value": "NSCLCother, NSCLCsquam"}, {"measurement": "Peptide Presentation on cancer entities", "setting": "[2]", "value": "MEL"}]}
{"substance": "239: peptide found in APOB (gene looked up) (DEDYTYLIL; listed as Homo sapiens) [compound 239]", "values": [{"measurement": "Gene Expression in tumor samples: highly over-expressed (++)", "setting": "[1]", "value": "HCC"}, {"measurement": "Peptide Presentation on cancer entities", "setting": "[2]", "value": "CCC"}]}
{"substance": "241: peptide found in APOB (gene looked up) (QELLDIANYL; listed as Homo sapiens) [compound 241]", "values": [{"measurement": "Gene Expression in tumor samples: highly over-expressed (++)", "setting": "[1]", "value": "HCC"}, {"measurement": "Peptide Presentation on cancer entities", "setting": "[2]", "value": "CCC, HCC"}]}
{"substance": "243: peptide found in FERMT1 (gene looked up) (VEQINISQDW; listed as Homo sapiens) [compound 243]", "values": [{"measurement": "Gene Expression in tumor samples: highly over-expressed (++)", "setting": "[1]", "value": "CRC"}, {"measurement": "Gene Expression in tumor samples: over-expressed (+)", "setting": "[1]", "value": "GC, HNSCC, NSCLCsquam, OSCAR, UBC"}, {"measurement": "Peptide Presentation on cancer entities", "setting": "[2]", "value": "CRC, HNSCC"}]}
{"substance": "247: peptide found in APOB (gene looked up) (KESMLKTTL; listed as Homo sapiens) [compound 247]", "values": [{"measurement": "Gene Expression in tumor samples: highly over-expressed (++)", "setting": "[1]", "value": "HCC"}, {"measurement": "Peptide Presentation on cancer entities", "setting": "[2]", "value": "HCC"}]}
{"substance": "248: peptide found in APOB (gene looked up) (KESQLPTVMDF; listed as Homo sapiens) [compound 248]", "values": [{"measurement": "Gene Expression in tumor samples: highly over-expressed (++)", "setting": "[1]", "value": "HCC"}, {"measurement": "Peptide Presentation on cancer entities", "setting": "[2]", "value": "HCC"}]}
{"substance": "253: peptide found in EGFR (gene looked up) (QEILHGAVRF; listed as Homo sapiens) [compound 253]", "values": [{"measurement": "Gene Expression in tumor samples: highly over-expressed (++)", "setting": "[1]", "value": "GBM"}, {"measurement": "Peptide Presentation on cancer entities", "setting": "[2]", "value": "CCC, CRC, GBC, GBM, GC, HCC, HNSCC, NSCLCadeno, NSCLCsquam, OSCAR, PRCA, RCC, UBC"}]}
{"substance": "254: peptide found in EGFR (gene looked up) (QEVAGYVLI; listed as Homo sapiens) [compound 254]", "values": [{"measurement": "Gene Expression in tumor samples: highly over-expressed (++)", "setting": "[1]", "value": "GBM"}, {"measurement": "Peptide Presentation on cancer entities", "setting": "[2]", "value": "NSCLCadeno"}]}
{"substance": "258: peptide found in APOB (gene looked up) (IEVSSPITL; listed as Homo sapiens) [compound 258]", "values": [{"measurement": "Gene Expression in tumor samples: highly over-expressed (++)", "setting": "[1]", "value": "HCC"}, {"measurement": "Peptide Presentation on cancer entities", "setting": "[2]", "value": "CCC, HCC, NSCLCadeno"}]}
{"substance": "259: peptide found in APOB (gene looked up) (IEVSSPITLQAL; listed as Homo sapiens) [compound 259]", "values": [{"measurement": "Gene Expression in tumor samples: highly over-expressed (++)", "setting": "[1]", "value": "HCC"}, {"measurement": "Peptide Presentation on cancer entities", "setting": "[2]", "value": "CCC, NSCLCadeno, OC"}]}
{"substance": "264: peptide found in PGR (gene looked up) (RELIKAIGL; listed as Homo sapiens) [compound 264]", "values": [{"measurement": "Gene Expression in tumor samples: highly over-expressed (++)", "setting": "[1]", "value": "UEC"}, {"measurement": "Gene Expression in tumor samples: over-expressed (+)", "setting": "[1]", "value": "BRCA"}, {"measurement": "Peptide Presentation on cancer entities", "setting": "[2]", "value": "BRCA"}]}
{"substance": "267: peptide found in APOB (gene looked up) (VELEVPQL; listed as Homo sapiens) [compound 267]", "values": [{"measurement": "Gene Expression in tumor samples: highly over-expressed (++)", "setting": "[1]", "value": "HCC"}, {"measurement": "Peptide Presentation on cancer entities", "setting": "[2]", "value": "GC, HCC"}]}
{"substance": "272: peptide found in APOB (gene looked up) (SEQNIQRANLF; listed as Homo sapiens) [compound 272]", "values": [{"measurement": "Gene Expression in tumor samples: highly over-expressed (++)", "setting": "[1]", "value": "HCC"}, {"measurement": "Peptide Presentation on cancer entities", "setting": "[2]", "value": "CCC, HCC"}]}
{"substance": "274: peptide found in PDE11A (gene looked up) (DEIDKLTGY; listed as Homo sapiens) [compound 274]", "values": [{"measurement": "Gene Expression in tumor samples: highly over-expressed (++)", "setting": "[1]", "value": "PRCA"}, {"measurement": "Peptide Presentation on cancer entities", "setting": "[2]", "value": "GC, HCC, PRCA"}]}
{"substance": "278: peptide found in ABCC4 (gene looked up) (DQVTVFLHF; listed as Homo sapiens) [compound 278]", "values": [{"measurement": "Gene Expression in tumor samples: highly over-expressed (++)", "setting": "[1]", "value": "PRCA"}, {"measurement": "Peptide Presentation on cancer entities", "setting": "[2]", "value": "UBC"}]}
{"substance": "284: peptide found in ROR1 (gene looked up) (SQYPHTHTF; listed as Homo sapiens) [compound 284]", "values": [{"measurement": "Gene Expression in tumor samples: highly over-expressed (++)", "setting": "[1]", "value": "CLL"}, {"measurement": "Peptide Presentation on cancer entities", "setting": "[2]", "value": "CLL"}]}
{"substance": "287: peptide found in UGT1A3 (gene looked up) (REVSVVDIL; listed as Homo sapiens) [compound 287]", "values": [{"measurement": "Gene Expression in tumor samples: highly over-expressed (++)", "setting": "[1]", "value": "HCC"}, {"measurement": "Peptide Presentation on cancer entities", "setting": "[2]", "value": "HCC"}]}
{"substance": "288: peptide found in UGT1A3 (gene looked up) (TEHFLKKFF; listed as Homo sapiens) [compound 288]", "values": [{"measurement": "Gene Expression in tumor samples: highly over-expressed (++)", "setting": "[1]", "value": "HCC"}, {"measurement": "Peptide Presentation on cancer entities", "setting": "[2]", "value": "HCC"}]}
{"substance": "289: peptide found in PTPRZ1 (gene looked up) (NRYINIVAY; listed as Homo sapiens) [compound 289]", "values": [{"measurement": "Gene Expression in tumor samples: highly over-expressed (++)", "setting": "[1]", "value": "GBM"}, {"measurement": "Peptide Presentation on cancer entities", "setting": "[2]", "value": "GBM"}]}
{"substance": "290: peptide found in CBX2 (gene looked up) (AECILSKRL; listed as Homo sapiens) [compound 290]", "values": [{"measurement": "Gene Expression in tumor samples: highly over-expressed (++)", "setting": "[1]", "value": "SCLC"}, {"measurement": "Gene Expression in tumor samples: over-expressed (+)", "setting": "[1]", "value": "AML, BRCA, GBC, GBM, HNSCC, MEL, NSCLCother, NSCLCsquam, OC, OSCAR, UEC"}, {"measurement": "Peptide Presentation on cancer entities", "setting": "[2]", "value": "BRCA, HNSCC"}]}
{"substance": "291: peptide found in FERMT1 (gene looked up) (DEQLLLRF; listed as Homo sapiens) [compound 291]", "values": [{"measurement": "Gene Expression in tumor samples: highly over-expressed (++)", "setting": "[1]", "value": "CRC"}, {"measurement": "Gene Expression in tumor samples: over-expressed (+)", "setting": "[1]", "value": "GC, HNSCC, NSCLCsquam, OSCAR, UBC"}, {"measurement": "Peptide Presentation on cancer entities", "setting": "[2]", "value": "CRC, OSCAR"}]}
{"substance": "293: peptide found in FERMT1 (gene looked up) (QEDEQLLLRF; listed as Homo sapiens) [compound 293]", "values": [{"measurement": "Gene Expression in tumor samples: highly over-expressed (++)", "setting": "[1]", "value": "CRC"}, {"measurement": "Gene Expression in tumor samples: over-expressed (+)", "setting": "[1]", "value": "GC, HNSCC, NSCLCsquam, OSCAR, UBC"}, {"measurement": "Peptide Presentation on cancer entities", "setting": "[2]", "value": "CRC, OSCAR"}]}
{"substance": "297: peptide found in EGFR (gene looked up) (DEYLIPQQGFF; listed as Homo sapiens) [compound 297]", "values": [{"measurement": "Gene Expression in tumor samples: highly over-expressed (++)", "setting": "[1]", "value": "GBM"}, {"measurement": "Peptide Presentation on cancer entities", "setting": "[2]", "value": "GC, HCC, NSCLCadeno, NSCLCsquam, OSCAR"}]}
{"substance": "300: peptide found in APOB (gene looked up) (KQTEATMTF; listed as Homo sapiens) [compound 300]", "values": [{"measurement": "Gene Expression in tumor samples: highly over-expressed (++)", "setting": "[1]", "value": "HCC"}, {"measurement": "Peptide Presentation on cancer entities", "setting": "[2]", "value": "CCC"}]}
{"substance": "304: peptide found in LOXL3 (gene looked up) (RELGFTEATGW; listed as Homo sapiens) [compound 304]", "values": [{"measurement": "Gene Expression in tumor samples: highly over-expressed (++)", "setting": "[1]", "value": "MEL"}, {"measurement": "Peptide Presentation on cancer entities", "setting": "[2]", "value": "CCC, CRC, GBC, MEL, NHL, NSCLCadeno, NSCLCsquam, OSCAR, RCC, UBC, UEC"}]}
{"substance": "307: peptide found in IL4I1 (gene looked up) (YEQLLKVVTW; listed as Homo sapiens) [compound 307]", "values": [{"measurement": "Gene Expression in tumor samples: highly over-expressed (++)", "setting": "[1]", "value": "NHL"}, {"measurement": "Gene Expression in tumor samples: over-expressed (+)", "setting": "[1]", "value": "GBC, OC, UEC"}, {"measurement": "Peptide Presentation on cancer entities", "setting": "[2]", "value": "CRC, NHL, UBC, UEC"}]}
{"substance": "310: peptide found in BTLA (gene looked up) (FELECPVKY; listed as Homo sapiens) [compound 310]", "values": [{"measurement": "Gene Expression in tumor samples: highly over-expressed (++)", "setting": "[1]", "value": "CLL"}, {"measurement": "Gene Expression in tumor samples: over-expressed (+)", "setting": "[1]", "value": "NHL"}, {"measurement": "Peptide Presentation on cancer entities", "setting": "[2]", "value": "CLL, NSCLCsquam"}]}
{"substance": "325: peptide found in IGF2BP1 (gene looked up) (AEQEIMKKV; listed as Homo sapiens) [compound 325]", "values": [{"measurement": "Gene Expression in tumor samples: over-expressed (+)", "setting": "[1]", "value": "GBC, HCC, HNSCC, MEL, NSCLCsquam"}, {"measurement": "Peptide Presentation on cancer entities", "setting": "[2]", "value": "GBC"}]}
